Results: patent US12486234B2, “PAPD5 inhibitors and methods of use thereof” (Children's Medical Center Corporation, priority 2019, dated 2025)
At least one compound was matched to its structure with a doubt left.

By UniProt entry, the sequences of proteins in these tests, tags left out. Residues count along the entry.
UniProt Q8NDF8, 68-698 isoform Q8NDF8-5 limits assumed: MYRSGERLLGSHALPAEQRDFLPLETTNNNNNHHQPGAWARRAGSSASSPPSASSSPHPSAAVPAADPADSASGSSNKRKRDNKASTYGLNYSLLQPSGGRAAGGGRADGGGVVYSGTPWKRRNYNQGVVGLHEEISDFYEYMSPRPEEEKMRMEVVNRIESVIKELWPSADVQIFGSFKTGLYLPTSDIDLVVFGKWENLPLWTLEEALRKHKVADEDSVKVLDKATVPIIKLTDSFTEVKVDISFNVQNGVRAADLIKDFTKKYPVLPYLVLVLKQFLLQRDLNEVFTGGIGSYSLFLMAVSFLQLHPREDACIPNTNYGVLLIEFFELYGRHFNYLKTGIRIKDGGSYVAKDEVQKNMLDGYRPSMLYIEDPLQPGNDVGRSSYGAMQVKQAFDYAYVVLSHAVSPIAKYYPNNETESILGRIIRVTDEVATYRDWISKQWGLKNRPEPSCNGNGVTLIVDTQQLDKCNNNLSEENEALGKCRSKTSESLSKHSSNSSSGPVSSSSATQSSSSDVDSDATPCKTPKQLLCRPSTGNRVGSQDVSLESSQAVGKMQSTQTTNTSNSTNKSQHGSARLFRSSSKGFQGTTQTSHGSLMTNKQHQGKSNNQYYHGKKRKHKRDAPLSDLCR

Molecular target: T1, PAPD5 (Homo sapiens, UniProt Q8NDF8)
T1 construct: made in house
Assay: RNA oligo-adenylation (oligo-extension) inhibition assay with recombinant PAPD5
Type: biochemical
Parameters: key: minimal activity (0); range from minimal activity (0) to that of compound 1 (+++); range from minimal activity (0) to that of compound 1 (+++); that of compound 1 (+++)
Details: qualitative measure of RNA oligo-extension inhibition, relative to compound 1
Procedure: An in vitro RNA polyadenylation assay using recombinant PAPD5, ATP and an oligonucleotide substrate utilized the following phenomenon: ATP utilization by PAPD5 reads out as a decreased luminescence signal produced by luciferase (KinaseGlo, Promega, Madison, WI).
Qualitative measure of RNA oligo-extension inhibition for the tested compounds, expressed as range from minimal activity (0) to that of compound 1 (+++), and results of a DSF binding assay (shown as shift in temperature at 100 μM of the compound) are shown in the Table 2 below.

With `N#Cc1cnc2ccc(OC(F)(F)F)cc2c1Nc1ccccc1C(=O)O` [Compound 15A, 2-[[3-cyano-6-(trifluoromethoxy)-4-quinolyl]amino]benzoic acid] the “Inhibition of PAPD5 RNA oligo adenylation” value was “++”.
